Laboratory results from the supplement of paper PMC10849652.
The list shows a part of the results.

Chains of the proteins cited; added tags and fusions are not shown. Lines headed by an entry give the natural chain unless they say otherwise; changes in a name come on top.
UniProt P17405: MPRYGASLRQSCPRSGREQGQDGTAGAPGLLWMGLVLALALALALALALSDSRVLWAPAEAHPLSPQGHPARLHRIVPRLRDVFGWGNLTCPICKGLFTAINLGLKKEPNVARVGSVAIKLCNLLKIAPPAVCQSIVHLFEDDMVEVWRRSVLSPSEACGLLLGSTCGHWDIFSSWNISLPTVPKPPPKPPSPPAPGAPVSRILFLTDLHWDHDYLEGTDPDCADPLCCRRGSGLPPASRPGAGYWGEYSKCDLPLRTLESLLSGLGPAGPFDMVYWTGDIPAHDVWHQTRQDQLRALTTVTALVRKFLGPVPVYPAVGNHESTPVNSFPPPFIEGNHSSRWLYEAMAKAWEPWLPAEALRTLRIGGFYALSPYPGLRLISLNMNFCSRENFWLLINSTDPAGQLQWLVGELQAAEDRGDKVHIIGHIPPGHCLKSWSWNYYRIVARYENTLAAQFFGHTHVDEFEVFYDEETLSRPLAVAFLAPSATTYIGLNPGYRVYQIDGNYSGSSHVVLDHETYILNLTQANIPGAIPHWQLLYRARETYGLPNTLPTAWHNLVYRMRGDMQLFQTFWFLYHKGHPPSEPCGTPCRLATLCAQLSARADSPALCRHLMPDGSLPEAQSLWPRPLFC
UniProt P0DMW3: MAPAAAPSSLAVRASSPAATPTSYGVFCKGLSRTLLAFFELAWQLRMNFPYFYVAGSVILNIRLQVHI
UniProt P35712: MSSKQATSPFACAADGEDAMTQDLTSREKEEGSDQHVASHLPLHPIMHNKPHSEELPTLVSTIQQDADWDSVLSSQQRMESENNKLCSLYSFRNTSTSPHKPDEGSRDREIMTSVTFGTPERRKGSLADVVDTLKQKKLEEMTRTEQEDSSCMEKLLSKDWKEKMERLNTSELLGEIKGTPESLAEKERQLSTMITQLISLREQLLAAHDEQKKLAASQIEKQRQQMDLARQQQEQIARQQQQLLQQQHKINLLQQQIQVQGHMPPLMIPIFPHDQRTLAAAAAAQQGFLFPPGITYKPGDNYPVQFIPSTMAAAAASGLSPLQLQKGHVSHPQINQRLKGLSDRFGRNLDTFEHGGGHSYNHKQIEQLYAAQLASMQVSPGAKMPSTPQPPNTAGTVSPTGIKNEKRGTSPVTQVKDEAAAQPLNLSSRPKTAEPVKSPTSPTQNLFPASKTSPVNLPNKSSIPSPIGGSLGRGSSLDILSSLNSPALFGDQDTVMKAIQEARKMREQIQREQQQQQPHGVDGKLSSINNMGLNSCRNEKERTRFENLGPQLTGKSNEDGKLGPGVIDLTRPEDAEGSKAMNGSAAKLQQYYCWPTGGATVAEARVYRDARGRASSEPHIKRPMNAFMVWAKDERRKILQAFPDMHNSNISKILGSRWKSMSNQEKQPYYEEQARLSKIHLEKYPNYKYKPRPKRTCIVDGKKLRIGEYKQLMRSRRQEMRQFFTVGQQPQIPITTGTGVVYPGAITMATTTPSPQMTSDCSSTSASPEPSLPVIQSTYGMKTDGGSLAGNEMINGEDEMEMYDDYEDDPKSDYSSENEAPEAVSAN
UniProt O95219: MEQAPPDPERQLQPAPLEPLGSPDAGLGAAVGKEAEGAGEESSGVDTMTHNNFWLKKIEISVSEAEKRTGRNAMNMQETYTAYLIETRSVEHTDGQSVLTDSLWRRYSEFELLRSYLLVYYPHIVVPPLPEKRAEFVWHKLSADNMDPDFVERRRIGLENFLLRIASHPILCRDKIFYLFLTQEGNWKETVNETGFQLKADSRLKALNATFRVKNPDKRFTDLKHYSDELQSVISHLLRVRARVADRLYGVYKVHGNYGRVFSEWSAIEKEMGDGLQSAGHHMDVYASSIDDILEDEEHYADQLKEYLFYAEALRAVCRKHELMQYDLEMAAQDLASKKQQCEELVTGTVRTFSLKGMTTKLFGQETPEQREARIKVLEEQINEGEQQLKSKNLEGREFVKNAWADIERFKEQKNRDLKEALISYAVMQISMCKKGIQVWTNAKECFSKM
UniProt Q92581: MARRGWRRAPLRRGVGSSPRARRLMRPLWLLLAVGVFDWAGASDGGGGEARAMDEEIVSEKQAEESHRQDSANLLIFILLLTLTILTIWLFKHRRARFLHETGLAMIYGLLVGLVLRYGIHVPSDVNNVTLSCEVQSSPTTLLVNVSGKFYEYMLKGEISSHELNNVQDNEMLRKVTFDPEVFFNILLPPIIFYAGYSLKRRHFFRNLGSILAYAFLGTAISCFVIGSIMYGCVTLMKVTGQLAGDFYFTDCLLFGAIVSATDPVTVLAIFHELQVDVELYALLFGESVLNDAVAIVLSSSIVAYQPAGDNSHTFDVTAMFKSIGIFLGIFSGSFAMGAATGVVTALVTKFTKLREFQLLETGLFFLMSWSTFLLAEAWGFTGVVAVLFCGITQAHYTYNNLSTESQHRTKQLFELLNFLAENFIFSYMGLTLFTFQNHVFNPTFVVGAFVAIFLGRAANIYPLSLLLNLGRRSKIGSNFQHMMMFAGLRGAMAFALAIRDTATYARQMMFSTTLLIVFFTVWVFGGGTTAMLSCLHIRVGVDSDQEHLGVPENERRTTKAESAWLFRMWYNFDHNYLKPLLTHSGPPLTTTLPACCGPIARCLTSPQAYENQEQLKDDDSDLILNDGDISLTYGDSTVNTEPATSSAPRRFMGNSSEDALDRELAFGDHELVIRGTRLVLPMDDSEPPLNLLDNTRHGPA
UniProt Q92484: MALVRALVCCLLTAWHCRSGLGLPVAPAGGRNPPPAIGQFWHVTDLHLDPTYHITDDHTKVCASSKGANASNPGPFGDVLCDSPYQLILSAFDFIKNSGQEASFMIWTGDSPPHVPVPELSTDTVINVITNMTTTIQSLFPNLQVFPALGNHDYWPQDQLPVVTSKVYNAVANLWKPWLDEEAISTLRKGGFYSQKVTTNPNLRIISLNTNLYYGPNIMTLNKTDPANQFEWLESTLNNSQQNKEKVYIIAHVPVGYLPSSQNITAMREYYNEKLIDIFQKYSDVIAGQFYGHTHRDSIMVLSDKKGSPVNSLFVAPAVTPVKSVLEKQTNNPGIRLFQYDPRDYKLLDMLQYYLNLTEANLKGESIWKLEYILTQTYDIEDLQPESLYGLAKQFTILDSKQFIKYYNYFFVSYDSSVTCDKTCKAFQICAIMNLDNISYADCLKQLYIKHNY
UniProt P35711: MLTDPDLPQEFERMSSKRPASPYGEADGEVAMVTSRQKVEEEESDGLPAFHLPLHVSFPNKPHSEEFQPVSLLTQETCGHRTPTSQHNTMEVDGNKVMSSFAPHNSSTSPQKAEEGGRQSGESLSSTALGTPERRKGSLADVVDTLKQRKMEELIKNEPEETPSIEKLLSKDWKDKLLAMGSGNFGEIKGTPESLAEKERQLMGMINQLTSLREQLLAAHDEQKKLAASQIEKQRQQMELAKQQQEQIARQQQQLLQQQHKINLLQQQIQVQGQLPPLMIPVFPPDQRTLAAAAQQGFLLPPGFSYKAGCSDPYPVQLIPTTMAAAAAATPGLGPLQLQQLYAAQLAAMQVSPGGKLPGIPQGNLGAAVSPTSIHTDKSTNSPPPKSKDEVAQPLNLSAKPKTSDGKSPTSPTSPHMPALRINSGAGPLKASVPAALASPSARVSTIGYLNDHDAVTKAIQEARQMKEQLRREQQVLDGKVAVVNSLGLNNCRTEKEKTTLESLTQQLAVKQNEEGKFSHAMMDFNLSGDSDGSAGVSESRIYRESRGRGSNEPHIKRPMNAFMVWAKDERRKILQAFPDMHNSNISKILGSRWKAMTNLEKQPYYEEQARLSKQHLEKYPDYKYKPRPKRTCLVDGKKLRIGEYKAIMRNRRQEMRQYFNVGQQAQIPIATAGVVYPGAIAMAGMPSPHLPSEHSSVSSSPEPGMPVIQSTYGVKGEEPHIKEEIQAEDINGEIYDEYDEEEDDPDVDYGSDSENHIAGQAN
UniProt O60271: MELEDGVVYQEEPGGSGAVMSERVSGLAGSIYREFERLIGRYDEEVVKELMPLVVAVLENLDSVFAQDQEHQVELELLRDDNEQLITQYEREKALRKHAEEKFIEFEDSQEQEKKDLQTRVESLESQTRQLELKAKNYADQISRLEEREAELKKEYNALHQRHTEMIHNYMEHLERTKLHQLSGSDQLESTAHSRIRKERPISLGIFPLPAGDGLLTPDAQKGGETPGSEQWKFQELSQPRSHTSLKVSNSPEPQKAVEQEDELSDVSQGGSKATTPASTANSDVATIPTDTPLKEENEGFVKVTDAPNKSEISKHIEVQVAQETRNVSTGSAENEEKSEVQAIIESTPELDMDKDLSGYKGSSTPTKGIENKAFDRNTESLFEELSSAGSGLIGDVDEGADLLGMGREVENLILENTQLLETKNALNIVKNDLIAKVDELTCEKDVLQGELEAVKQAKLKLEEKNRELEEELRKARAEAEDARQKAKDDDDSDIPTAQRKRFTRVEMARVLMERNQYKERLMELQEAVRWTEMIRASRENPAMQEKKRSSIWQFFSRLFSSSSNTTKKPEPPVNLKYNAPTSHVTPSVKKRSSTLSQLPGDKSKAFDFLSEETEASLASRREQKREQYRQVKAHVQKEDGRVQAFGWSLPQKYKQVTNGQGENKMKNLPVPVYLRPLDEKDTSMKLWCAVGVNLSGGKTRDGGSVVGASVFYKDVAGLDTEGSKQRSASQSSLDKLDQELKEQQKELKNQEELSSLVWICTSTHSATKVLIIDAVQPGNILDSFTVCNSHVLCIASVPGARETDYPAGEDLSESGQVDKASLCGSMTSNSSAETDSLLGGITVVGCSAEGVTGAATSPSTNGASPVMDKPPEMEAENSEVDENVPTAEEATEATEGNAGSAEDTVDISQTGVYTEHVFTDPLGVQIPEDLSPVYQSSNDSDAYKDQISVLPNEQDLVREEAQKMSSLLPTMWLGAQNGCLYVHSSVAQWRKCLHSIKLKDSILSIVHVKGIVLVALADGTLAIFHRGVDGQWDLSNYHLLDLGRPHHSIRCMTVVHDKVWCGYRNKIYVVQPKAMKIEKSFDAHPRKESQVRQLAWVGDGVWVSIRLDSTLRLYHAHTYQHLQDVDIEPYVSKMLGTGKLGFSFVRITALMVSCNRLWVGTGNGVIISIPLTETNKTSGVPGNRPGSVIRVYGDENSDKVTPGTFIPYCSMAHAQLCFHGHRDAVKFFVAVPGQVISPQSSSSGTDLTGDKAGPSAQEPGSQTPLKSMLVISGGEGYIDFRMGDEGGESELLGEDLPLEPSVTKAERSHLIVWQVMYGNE
UniProt Q5VWJ9: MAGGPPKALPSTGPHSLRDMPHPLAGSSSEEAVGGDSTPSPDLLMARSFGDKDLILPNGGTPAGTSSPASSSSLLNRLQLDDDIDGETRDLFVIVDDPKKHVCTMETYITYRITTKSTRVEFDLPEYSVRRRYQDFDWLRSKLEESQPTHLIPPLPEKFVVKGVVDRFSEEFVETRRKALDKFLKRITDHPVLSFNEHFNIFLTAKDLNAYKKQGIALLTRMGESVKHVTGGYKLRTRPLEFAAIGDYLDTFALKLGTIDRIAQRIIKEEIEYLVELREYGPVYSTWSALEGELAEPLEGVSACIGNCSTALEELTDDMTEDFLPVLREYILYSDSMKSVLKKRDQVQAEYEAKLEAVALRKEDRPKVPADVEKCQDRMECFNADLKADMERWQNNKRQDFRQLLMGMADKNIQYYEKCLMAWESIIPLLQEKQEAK
UniProt Q86UD5: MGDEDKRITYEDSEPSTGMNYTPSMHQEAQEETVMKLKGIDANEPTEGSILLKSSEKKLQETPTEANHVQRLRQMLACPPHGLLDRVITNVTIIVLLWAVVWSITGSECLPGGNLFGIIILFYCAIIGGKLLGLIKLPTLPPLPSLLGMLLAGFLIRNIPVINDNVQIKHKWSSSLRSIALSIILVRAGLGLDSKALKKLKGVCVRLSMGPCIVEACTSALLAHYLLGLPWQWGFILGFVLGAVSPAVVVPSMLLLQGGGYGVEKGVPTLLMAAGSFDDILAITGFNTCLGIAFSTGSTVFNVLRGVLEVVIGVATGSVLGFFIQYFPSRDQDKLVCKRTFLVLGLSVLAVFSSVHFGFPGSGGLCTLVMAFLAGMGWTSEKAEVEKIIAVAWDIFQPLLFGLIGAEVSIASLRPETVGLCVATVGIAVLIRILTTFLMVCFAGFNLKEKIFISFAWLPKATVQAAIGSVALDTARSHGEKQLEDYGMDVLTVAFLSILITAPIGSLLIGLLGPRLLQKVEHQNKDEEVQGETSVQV
UniProt Q53HV7: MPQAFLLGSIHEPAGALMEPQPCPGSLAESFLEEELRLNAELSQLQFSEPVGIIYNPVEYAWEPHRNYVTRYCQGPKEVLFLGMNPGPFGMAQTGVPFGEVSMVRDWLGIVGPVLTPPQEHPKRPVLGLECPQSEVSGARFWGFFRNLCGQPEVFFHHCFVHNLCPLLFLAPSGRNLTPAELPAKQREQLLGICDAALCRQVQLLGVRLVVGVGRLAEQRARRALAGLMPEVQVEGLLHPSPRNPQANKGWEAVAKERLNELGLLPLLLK
UniProt Q96E16: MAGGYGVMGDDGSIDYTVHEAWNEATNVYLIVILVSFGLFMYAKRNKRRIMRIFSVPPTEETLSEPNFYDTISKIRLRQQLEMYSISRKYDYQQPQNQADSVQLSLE

Key:
Assay in all cases: log2 fold change, soluble protein after heating vs DMSO (PISA); higher = thermal stabilisation; K562 cells, 10 uM, 30 min; active = over 0.2 and 3.5 SD of the protein, either way, in both replicates (recomputed)
[1] = compound: CN1CCN(CCOc2cc(OC3CCOCC3)c3c(Nc4c(Cl)ccc5c4OCO5)ncnc3c2)CC1 [saracatinib]
Outline: (§1)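 Soluble protein was defined as the supernatant after 21,000xg for 90 min. It came from K562 cells at 2×10^6 cells/mL given 10 μM compound for 30 min, heated in aliquots for 3 min across 48°C-58°C, pooled, and extracted in PBS with 0.5% NP-40 at 4°C, and was quantified by TMTpro 16plex LC-MS/MS with equalised channel sums. Thermal stability against control samples, from duplicates, is reported as log2 fold change.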

[2] = compound: CN1CCN(c2nc(C3=C(c4c[nH]c5ccccc45)C(=O)NC3=O)c3ccccc3n2)CC1 [sotrastaurin]
Outline: as §1

[3] = compound: CNC(=O)c1ccc(Nc2ncc(C(F)(F)F)c(NCc3nccnc3N(C)S(C)(=O)=O)n2)cc1 [defactinib]
Outline: as §1

[4] = compound: CNc1nc(-c2ccc3c(N)n[nH]c3c2)cc(N2C[C@@H](C(=O)NC3CCCCC3)CC[C@H]2C)n1
Outline: as §1

[5] = compound: COC(=O)[C@H](CCSC)NC(=O)C1=C(C=C(C=C1)NC[C@H](CS)N)C2=CC=CC=C2
Outline: as §1

[6] = compound: CNC(=O)C1=CC=CC=C1NC2=NC(=NC=C2Cl)NC3=C(C=C(C=C3)N4CCOCC4)OC
Outline: as §1

[7] = compound: CNCc1ccc(-c2[nH]c3cc(F)cc4c3c2CCNC4=O)cc1 [rucaparib]
Outline: as §1

[8] = compound: COC(=O)N[C@@H](C)CNc1nccc(-c2cn(C(C)C)nc2-c2cc(Cl)cc(NS(C)(=O)=O)c2F)n1 [encorafenib]
Outline: as §1

[9] = compound: CN1CC[C@H](c2c(O)cc(O)c3c(=O)cc(-c4ccccc4Cl)oc23)[C@H](O)C1 [alvocidib]
Outline: as §1

[10] = compound: CN1CCc2c(c3ccccc3n2Cc2ccc(C(=O)NO)cc2)C1 [Tubastatin A]
Outline: as §1

Measured: log2 fold change

SMPD1 (UniProt P17405)
inactive: [1] -0.061 | [2] -0.176 | [3] -0.026 | [4] 0.022 | [5] 0.01

SMARCD1 (UniProt Q96GM5)
inactive: [6] -0.087

SMIM13 (UniProt P0DJ93)
inactive: [2] 0.157 | [7] 0.02 | [8] -0.083

SNRK (UniProt Q9NRH2)
inactive: [1] -0.092 | [2] 0.003 | [7] -0.099 | [4] 0.011 | [8] 0.002

SNX27 (UniProt Q96L92)
inactive: [1] -0.134 | [9] 0.059 | [10] -0.062 | [6] 0.09 | [3] 0.021 | [7] 0.258 | [4] 0.179 | [8] 0.307 | [5] -0.096

SLC8B1 (UniProt Q6J4K2)
inactive: [1] 0.036 | [6] -0.019 | [3] 0.029 | [4] -0.176 | [5] -0.028

SNAPC5 (UniProt O75971)
inactive: [1] 0 | [10] 0.091 | [6] -0.073 | [3] -0.048 | [4] 0.018 | [5] -0.016

SNX13 (UniProt Q9Y5W8)
inactive: [1] 0.005 | [2] 0.186 | [6] -0.042 | [4] -0.003

SMIM4 (UniProt Q8WVI0)
inactive: [1] 0.009 | [9] -0.041 | [10] -0.084 | [6] -0.007 | [3] 0.019 | [7] 0.065 | [4] -0.11 | [8] -0.025 | [5] -0.011

SMARCAL1 (UniProt Q9NZC9)
inactive: [6] -0.043 | [3] -0.126 | [5] -0.085

SMIM10L1 (UniProt P0DMW3)
inactive: [6] 0.097

SP4 (UniProt Q02446)
inactive: [10] 0.015 | [7] 0.026 | [8] -0.013

SOX6 (UniProt P35712)
inactive: [9] -0.107 | [3] 0.059 | [5] 0.029

SMTN isoform 6 (UniProt P53814)
inactive: [2] -0.011 | [10] 0.014 | [6] -0.158 | [3] 0.097 | [5] -0.005

SNX25 (UniProt Q9H3E2)
inactive: [1] 0.036 | [2] 0.15 | [6] -0.154 | [4] 0.055

SNX2 isoform 2 (UniProt O60749)
inactive: [1] -0.002 | [2] 0.003 | [3] -0.155 | [7] 0.024 | [4] 0.176 | [8] -0.141 | [5] 0.097

SNRPN isoform 2 (UniProt P63162)
inactive: [7] 0.056 | [8] -0.284

SNAP47 (UniProt Q5SQN1)
inactive: [6] -0.063 | [3] -0.044 | [5] -0.145

SNX4 (UniProt O95219)
inactive: [9] 0.097

SP2 (UniProt Q02086)
inactive: [1] 0.09 | [2] 0.091 | [7] 0.324 | [4] -0.132 | [8] -0.025

SMU1 isoform 2 (UniProt Q2TAY7)
inactive: [7] -0.184 | [8] -0.265

SLC9A6 isoform 3 (UniProt Q92581)
inactive: [1] 0.128 | [10] 0.04 | [6] 0.104 | [7] 0.165 | [4] -0.107 | [8] -0.162

SMARCA2 (UniProt P51531)
inactive: [6] 0.002 | [7] -0.03 | [8] -0.106

SMPDL3A (UniProt Q92484)
inactive: [1] -0.175 | [10] -0.242 | [4] -0.106

Quoted from above (two entries):
SNX4 (UniProt O95219)
inactive: [9] 0.097

SP2 (UniProt Q02086)
inactive: [1] 0.09 | [2] 0.091 | [7] 0.324 | [4] -0.132 | [8] -0.025

More records follow:

SLCO4A1 (UniProt Q96BD0)
inactive: [2] 0.066 | [9] -0.107 | [10] -0.069 | [6] 0.091 | [3] -0.169 | [7] -0.124 | [8] 0.211 | [5] 0.042

SMPD4 isoform 2 (UniProt Q9NXE4)
inactive: [1] 0.028 | [10] -0.054 | [3] 0.094 | [4] 0.02 | [5] -0.19

SORBS3 (UniProt O60504)
inactive: [6] 0.014

SOX5 (UniProt P35711)
inactive: [2] -0.014 | [10] 0.263 | [6] -0.053 | [3] -0.224 | [5] 0.064

SPAG9 isoform 4 (UniProt O60271)
inactive: [2] -0.171 | [10] -0.103 | [6] 0.081 | [3] 0.018 | [7] 0.113 | [8] 0.022 | [5] 0.088

SNX30 (UniProt Q5VWJ9)
inactive: [2] 0.047

SNX19 (UniProt Q92543)
inactive: [2] -0.149 | [6] 0.163 | [7] 0.075 | [8] 0.027

SNX18 (UniProt Q96RF0)
inactive: [2] 0.089 | [6] -0.017

SNRPD2 (UniProt K7EJB5)
inactive: [1] -0.109 | [9] 0.078 | [10] 0 | [3] 0.08 | [7] -0.04 | [4] -0.051 | [8] -0.056 | [5] 0.02

SLC9B2 (UniProt Q86UD5)
inactive: [3] 0.239 | [5] 0.016

SOS1 (UniProt Q07889)
inactive: [2] -0.168 | [10] 0.095 | [6] 0.014 | [7] -0.139 | [8] -0.005

SMUG1 (UniProt Q53HV7)
inactive: [2] -0.098 | [7] 0.047 | [8] 0.163

SMARCD2 (UniProt Q92925)
inactive: [9] -0.4 | [10] 0.128 | [6] -0.185 | [7] 0.328 | [8] 0.323

SOX7 isoform 2 (UniProt Q9BT81)
inactive: [1] -0.039 | [9] 0.34 | [10] 0.176 | [6] 0.451 | [3] 0.303 | [4] 0.167 | [5] 0.054

SMIM19 (UniProt Q96E16)
inactive: [1] -0.07 | [10] -0.019 | [3] -0.087 | [7] -0.301 | [4] -0.136 | [8] -0.238 | [5] 0.142
